According to article PMC9974451:
These are yes or no findings as the source states them, for the method shown. A result given as binding can be weak or reduced; the word gives no strength. Sequences can lack the tags named with a protein.

Assays:
[1] = target: T1, His-NOSIP-MBP (nitric oxide synthase interacting protein) (UniProt Q9Y314); experiment: pull-down; competition among NTRs: 100 pmol His-NOSIP-MBP immobilised on amylose beads, 100 pmol of one NTR and increasing amounts of the other; Coomassie; both purified
T1 sequence: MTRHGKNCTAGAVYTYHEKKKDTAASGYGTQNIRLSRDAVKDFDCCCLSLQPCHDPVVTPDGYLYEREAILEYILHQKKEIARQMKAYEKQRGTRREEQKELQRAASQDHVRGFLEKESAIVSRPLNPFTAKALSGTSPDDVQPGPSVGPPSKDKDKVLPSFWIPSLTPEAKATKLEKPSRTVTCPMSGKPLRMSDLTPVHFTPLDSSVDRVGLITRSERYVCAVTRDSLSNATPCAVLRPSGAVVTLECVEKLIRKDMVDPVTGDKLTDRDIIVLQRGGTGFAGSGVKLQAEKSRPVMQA

[2] = target: T1, His-NOSIP-MBP (nitric oxide synthase interacting protein); experiment: pull-down; 100 pmol His-NOSIP-MBP (WT or K78A/K79A) or MBP immobilised on amylose beads, 100 pmol purified His-tagged NTR, with or without 300 pmol RanQ69L(1-180)-GTP, 3 h, 4 °C, TPB; SDS-PAGE, Coomassie; both purified

In the case of His-importin 7 (Xenopus laevis), the binding [1] is reported as “binds” and the binding [2] is reported as “binds”.
